Source: the supplement of paper PMC10849652
Some of the results follow.

Protein sequences, listed by entry. Tags and fused reporters are not part of them. Lines headed by an entry give the natural chain unless they say otherwise; changes in a name come on top.
UniProt P17542, whole entry, looked up: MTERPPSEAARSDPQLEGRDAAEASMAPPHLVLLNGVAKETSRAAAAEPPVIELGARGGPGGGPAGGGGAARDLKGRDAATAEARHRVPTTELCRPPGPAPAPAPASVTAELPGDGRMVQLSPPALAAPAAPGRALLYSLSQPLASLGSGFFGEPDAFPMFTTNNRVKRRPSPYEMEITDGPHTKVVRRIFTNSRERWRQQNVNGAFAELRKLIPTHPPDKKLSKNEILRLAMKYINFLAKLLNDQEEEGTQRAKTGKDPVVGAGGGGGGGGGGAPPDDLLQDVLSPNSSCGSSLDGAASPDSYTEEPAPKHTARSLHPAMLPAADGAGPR
UniProt Q7RTN6: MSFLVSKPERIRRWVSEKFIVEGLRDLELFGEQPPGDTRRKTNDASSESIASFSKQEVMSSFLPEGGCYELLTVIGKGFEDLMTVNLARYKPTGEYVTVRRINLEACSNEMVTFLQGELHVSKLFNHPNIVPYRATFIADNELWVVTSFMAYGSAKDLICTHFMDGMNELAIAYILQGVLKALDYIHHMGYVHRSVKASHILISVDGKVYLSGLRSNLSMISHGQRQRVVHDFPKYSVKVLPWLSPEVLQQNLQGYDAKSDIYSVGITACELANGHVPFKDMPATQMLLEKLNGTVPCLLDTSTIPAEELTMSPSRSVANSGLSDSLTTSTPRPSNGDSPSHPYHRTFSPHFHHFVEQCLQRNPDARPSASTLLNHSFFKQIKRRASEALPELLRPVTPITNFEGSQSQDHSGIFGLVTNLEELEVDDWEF
UniProt Q93075: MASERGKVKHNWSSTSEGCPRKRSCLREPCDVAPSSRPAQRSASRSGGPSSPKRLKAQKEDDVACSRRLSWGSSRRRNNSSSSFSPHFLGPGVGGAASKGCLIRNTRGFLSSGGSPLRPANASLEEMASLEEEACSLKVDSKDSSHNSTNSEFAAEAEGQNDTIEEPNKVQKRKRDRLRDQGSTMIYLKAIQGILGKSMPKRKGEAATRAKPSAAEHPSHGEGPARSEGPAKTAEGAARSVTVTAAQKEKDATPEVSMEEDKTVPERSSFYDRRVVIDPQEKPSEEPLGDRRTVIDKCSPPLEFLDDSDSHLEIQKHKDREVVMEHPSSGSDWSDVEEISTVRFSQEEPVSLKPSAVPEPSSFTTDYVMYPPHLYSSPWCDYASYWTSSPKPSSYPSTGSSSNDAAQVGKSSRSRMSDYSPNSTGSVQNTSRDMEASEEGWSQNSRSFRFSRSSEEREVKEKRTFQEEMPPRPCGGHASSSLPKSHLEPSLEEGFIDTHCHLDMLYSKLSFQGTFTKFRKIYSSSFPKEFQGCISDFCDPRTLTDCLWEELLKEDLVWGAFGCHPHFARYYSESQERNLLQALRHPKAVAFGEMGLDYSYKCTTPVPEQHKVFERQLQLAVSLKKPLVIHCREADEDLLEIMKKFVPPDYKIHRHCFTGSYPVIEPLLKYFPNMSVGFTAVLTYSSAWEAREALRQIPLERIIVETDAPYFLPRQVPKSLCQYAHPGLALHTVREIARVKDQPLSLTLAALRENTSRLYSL
UniProt Q86Y82: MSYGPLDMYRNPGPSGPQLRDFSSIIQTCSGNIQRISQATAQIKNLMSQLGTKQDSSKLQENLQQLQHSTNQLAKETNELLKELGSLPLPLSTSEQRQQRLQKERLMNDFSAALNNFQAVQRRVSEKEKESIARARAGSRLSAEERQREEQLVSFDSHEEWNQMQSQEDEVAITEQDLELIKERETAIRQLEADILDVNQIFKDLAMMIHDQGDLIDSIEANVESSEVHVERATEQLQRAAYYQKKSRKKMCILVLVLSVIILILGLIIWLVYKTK
UniProt Q16563: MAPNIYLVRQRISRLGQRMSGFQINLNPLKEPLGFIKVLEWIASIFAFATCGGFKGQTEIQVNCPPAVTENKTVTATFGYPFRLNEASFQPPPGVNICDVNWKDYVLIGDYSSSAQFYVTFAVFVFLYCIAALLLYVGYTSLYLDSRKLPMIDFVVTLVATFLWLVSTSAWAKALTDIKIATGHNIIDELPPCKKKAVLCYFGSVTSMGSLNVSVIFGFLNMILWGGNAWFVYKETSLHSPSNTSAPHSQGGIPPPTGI
UniProt Q8TCJ2: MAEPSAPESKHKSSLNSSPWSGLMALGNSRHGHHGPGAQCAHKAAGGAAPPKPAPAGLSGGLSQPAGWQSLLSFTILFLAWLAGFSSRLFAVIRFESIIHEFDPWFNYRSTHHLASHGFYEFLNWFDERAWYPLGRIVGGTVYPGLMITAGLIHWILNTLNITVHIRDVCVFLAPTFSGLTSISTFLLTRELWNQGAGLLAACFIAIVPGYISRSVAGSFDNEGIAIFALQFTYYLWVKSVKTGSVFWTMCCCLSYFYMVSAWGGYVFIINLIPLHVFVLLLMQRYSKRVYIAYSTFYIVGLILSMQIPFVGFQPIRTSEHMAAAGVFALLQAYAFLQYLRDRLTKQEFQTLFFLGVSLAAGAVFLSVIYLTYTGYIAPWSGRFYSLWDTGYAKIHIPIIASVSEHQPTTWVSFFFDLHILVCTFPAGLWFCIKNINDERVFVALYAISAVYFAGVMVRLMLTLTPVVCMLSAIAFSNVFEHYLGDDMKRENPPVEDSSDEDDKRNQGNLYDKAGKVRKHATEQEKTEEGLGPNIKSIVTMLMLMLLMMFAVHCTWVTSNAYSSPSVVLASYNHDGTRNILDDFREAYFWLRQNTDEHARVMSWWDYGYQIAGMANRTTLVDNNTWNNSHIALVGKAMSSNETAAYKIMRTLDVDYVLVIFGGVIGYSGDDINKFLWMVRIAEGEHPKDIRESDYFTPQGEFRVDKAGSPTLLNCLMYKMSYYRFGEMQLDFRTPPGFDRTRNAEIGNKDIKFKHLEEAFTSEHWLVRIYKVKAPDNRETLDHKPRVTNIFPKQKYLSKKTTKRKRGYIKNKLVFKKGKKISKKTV
UniProt O43760: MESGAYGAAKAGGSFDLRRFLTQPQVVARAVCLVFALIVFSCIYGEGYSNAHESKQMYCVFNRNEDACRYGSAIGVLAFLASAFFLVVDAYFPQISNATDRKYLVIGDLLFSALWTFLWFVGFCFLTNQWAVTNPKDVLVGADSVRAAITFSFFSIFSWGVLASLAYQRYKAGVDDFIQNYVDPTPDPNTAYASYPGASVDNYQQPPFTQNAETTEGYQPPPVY
UniProt O43815: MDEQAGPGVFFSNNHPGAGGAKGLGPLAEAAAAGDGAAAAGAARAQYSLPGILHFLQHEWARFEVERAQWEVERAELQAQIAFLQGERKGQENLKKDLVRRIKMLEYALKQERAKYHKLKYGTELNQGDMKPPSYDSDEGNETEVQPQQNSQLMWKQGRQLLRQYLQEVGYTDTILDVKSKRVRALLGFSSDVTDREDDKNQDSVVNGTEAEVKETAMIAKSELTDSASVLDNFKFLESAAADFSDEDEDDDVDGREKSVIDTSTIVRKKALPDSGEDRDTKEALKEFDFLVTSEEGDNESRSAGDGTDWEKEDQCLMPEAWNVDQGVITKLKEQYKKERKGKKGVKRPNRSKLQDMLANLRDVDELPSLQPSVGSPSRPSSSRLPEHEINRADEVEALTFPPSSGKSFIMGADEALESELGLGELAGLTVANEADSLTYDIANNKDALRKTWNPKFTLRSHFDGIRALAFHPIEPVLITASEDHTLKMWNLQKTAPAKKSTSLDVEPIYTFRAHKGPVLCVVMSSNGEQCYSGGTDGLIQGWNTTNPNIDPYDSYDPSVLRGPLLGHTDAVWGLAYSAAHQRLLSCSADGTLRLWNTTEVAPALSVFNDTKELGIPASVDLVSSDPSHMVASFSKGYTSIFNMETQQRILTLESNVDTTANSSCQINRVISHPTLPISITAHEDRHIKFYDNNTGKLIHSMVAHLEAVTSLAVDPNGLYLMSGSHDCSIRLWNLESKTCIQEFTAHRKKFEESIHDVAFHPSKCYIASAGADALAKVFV
UniProt P63165, whole entry, looked up: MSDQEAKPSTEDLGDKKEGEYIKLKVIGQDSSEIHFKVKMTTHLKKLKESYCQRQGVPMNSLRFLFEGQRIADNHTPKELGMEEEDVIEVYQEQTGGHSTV
UniProt P61764, whole entry, looked up: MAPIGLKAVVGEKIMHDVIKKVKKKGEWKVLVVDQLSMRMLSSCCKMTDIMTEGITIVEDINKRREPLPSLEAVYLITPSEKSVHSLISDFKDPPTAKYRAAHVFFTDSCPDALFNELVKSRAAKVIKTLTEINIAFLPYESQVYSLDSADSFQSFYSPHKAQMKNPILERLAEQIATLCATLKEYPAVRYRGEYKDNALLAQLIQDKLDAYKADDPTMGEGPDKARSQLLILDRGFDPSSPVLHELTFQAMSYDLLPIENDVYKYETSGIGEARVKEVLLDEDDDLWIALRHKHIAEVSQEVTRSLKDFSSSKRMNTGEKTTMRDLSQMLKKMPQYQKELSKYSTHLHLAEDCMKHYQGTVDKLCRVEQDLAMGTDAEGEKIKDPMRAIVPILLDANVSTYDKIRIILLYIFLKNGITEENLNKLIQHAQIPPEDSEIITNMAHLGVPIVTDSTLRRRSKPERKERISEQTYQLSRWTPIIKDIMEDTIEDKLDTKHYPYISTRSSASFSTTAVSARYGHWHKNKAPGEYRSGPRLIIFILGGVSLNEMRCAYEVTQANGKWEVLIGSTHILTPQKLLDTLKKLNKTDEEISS
UniProt Q9Y2Z0: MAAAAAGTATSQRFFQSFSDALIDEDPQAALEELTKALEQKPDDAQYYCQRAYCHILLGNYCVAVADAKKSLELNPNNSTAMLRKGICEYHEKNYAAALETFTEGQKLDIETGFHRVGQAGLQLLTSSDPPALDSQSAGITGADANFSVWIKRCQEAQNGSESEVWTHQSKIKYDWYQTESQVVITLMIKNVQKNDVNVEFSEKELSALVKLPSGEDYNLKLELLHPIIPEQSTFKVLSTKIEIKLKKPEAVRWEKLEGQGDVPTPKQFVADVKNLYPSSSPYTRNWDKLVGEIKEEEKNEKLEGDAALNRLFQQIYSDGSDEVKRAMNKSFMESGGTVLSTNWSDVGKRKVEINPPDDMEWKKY
UniProt Q92844: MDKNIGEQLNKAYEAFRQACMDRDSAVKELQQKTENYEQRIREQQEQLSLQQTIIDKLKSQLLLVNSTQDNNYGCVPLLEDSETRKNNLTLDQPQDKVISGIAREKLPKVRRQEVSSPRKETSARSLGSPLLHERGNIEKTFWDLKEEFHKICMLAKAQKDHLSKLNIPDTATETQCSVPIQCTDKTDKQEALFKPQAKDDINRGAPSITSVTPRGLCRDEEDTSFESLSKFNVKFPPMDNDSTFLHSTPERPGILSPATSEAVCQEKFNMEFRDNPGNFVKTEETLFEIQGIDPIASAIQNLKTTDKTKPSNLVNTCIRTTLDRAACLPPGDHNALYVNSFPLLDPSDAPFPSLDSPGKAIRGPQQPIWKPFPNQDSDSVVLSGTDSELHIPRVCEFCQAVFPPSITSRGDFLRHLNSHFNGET
UniProt Q9Y5B9, whole entry, looked up: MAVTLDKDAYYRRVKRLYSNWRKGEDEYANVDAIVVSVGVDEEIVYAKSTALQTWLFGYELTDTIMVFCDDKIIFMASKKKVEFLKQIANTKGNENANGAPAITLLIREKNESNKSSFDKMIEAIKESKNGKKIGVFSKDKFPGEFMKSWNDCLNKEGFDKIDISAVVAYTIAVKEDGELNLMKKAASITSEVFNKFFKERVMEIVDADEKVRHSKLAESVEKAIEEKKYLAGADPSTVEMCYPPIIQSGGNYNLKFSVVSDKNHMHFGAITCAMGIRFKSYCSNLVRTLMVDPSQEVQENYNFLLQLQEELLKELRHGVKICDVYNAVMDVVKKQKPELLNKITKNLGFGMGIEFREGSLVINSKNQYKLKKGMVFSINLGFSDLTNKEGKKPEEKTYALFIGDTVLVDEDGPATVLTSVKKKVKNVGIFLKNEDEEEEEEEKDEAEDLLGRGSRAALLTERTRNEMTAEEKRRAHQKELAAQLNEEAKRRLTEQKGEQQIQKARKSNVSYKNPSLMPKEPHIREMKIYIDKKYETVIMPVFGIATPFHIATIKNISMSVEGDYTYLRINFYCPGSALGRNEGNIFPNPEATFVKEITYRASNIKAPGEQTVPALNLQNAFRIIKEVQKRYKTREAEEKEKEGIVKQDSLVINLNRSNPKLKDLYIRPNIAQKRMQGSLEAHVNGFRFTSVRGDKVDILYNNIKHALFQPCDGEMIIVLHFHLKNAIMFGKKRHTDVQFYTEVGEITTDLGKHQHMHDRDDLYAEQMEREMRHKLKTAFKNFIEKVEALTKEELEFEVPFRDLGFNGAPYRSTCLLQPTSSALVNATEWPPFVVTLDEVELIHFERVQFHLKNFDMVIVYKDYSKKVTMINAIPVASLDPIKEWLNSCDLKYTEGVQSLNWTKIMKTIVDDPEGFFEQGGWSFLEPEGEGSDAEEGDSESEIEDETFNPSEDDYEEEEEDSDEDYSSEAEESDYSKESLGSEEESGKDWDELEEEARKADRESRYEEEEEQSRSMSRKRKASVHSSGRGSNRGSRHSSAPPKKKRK
UniProt P55854, whole entry, looked up: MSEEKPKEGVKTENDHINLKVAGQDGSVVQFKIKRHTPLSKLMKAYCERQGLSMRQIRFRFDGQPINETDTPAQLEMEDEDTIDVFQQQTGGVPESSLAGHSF

How the values were obtained:
Test in all cases: log2 fold change, soluble protein after heating vs DMSO (PISA); higher = thermal stabilisation; K562 cells, 10 uM, 30 min; active = over 0.2 and 3.5 SD of the protein, either way, in both replicates (recomputed)
[1] = compound: C1=CC=C(C=C1)[C@H](COC2=CC3=C(C=C2)NC(=O)N3)NC(=O)C4=CC=CN(C4=O)CC5=CC(=C(C=C5)F)F
Outline: (§1)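 Soluble protein was quantified by TMTpro 16plex LC-MS/MS after channel sums were equalised. It was obtained as the supernatant after 21,000xg for 90 min from pooled aliquots of K562 cells (2×10^6 cells/mL, 10 μM compound, 30 min) heated for 3 min across 48°C-58°C and extracted in PBS with 0.5% NP-40 at 4°C. Thermal stability values are relative to control samples and come from duplicates. They are given as log2 fold changes.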

[2] = compound: CC1=C(SC2=C1C(=N[C@H](C3=NN=C(N32)C)CC(=O)N)C4=CC=C(C=C4)Cl)C
Outline: as §1

[3] = compound: CC1=C2C(=CC=C1)N=C(N(C2=O)C3=CC=CC=C3C)CN4C=NC5=C(N=CN=C54)N
Outline: as §1

[4] = compound: Cc1sc2c(c1C)C(c1ccc(Cl)cc1)=N[C@@H](CC(=O)OC(C)(C)C)c1nnc(C)n1-2
Outline: as §1

[5] = compound: c1ccc([C@@H]2C[C@H]2NC2CCNCC2)cc1
Outline: as §1

Measured: log2 fold change

TAL1 (UniProt P17542)
inactive: [1] 0.016 | [2] -0.027 | [3] 0.044 | [4] -0.054 | [5] -0.004

SUPT6H (UniProt Q7KZ85)
inactive: [1] -0.181 | [2] 0.115 | [3] 0.234 | [4] 0.053 | [5] -0.187

STRADA (UniProt Q7RTN6)
inactive: [1] -0.006 | [2] 0.091 | [3] 0.005 | [4] 0.044 | [5] 0.07

TADA3 (UniProt O75528)
inactive: [1] -0.03 | [2] 0.016 | [3] -0.009 | [4] 0.045 | [5] 0.011

TAPBP isoform 3 (UniProt O15533)
inactive: [1] 0.043 | [2] 0.162 | [3] -0.218 | [4] 0.015 | [5] -0.088

TARS2 (UniProt Q9BW92)
inactive: [1] -0.018 | [2] 0.025 | [3] 0.101 | [4] -0.019 | [5] -0.023

TARBP2 (UniProt Q15633)
inactive: [1] -0.011 | [2] -0.088 | [3] -0.053 | [4] 0.153 | [5] 0.018

TATDN2 (UniProt Q93075)
inactive: [1] -0.044 | [2] -0.067 | [3] -0.037 | [4] 0.069 | [5] 0.071

TAF9B (UniProt Q9HBM6)
inactive: [1] 0.036 | [2] -0.048 | [3] -0.009 | [4] 0.091 | [5] 0.161

SURF4 (UniProt O15260)
inactive: [1] -0.007 | [2] -0.011 | [3] -0.052 | [4] -0.041 | [5] 0.023

STX12 (UniProt Q86Y82)
inactive: [1] 0.019 | [2] 0.007 | [3] 0.014 | [4] -0.002 | [5] 0.019

SWAP70 (UniProt Q9UH65)
inactive: [1] -0.028 | [2] 0.016 | [3] 0.044 | [4] -0.002 | [5] 0.039

SYPL1 (UniProt Q16563)
inactive: [1] 0.018 | [2] 0.061 | [3] 0.082 | [4] -0.005 | [5] 0.033

TARBP1 (UniProt Q13395)
inactive: [1] -0.058 | [2] 0.048 | [3] 0.081 | [4] -0.073 | [5] -0.027

SUB1 (UniProt P53999)
inactive: [1] -0.013 | [2] -0.004 | [3] 0.016 | [4] -0.005 | [5] 0.018

TACC3 (UniProt Q9Y6A5)
inactive: [1] 0.015 | [2] 0.024 | [3] 0.076 | [4] -0.001 | [5] 0.014

TAPT1 (UniProt Q6NXT6)
inactive: [1] 0.01 | [2] 0.043 | [3] 0.007 | [4] 0.046 | [5] -0.006

STT3B (UniProt Q8TCJ2)
inactive: [1] 0.066 | [2] -0.056 | [3] -0.014 | [4] 0.003 | [5] 0.027

TAOK1 (UniProt Q7L7X3)
inactive: [1] 0.057 | [2] 0.095 | [3] 0.041 | [4] 0.012 | [5] 0.002

STK38 (UniProt Q15208)
inactive: [1] -0.08 | [2] 0.045 | [3] 0.055 | [4] 0.028 | [5] -0.034

TACC1 isoform 2 (UniProt O75410)
inactive: [1] -0.029 | [2] 0.039 | [3] 0.087 | [4] 0.002 | [5] 0.017

SYNGR2 (UniProt O43760)
inactive: [1] 0.025 | [2] 0.106 | [3] 0.091 | [4] -0.041 | [5] 0.12

STRN (UniProt O43815)
inactive: [1] -0.025 | [2] 0.011 | [3] -0.003 | [4] -0.108 | [5] -0.017

TATDN3 isoform 3 (UniProt Q17R31)
inactive: [1] 0.042 | [2] 0.002 | [3] 0.029 | [4] 0.056 | [5] 0.036

TAGLN3 (UniProt Q9UI15)
inactive: [1] -0.107 | [2] -0.082 | [3] 0.088 | [4] -0.052 | [5] 0.15

SUMO1 (UniProt P63165)
inactive: [1] -0.004 | [2] -0.097 | [3] -0.048 | [4] 0.231 | [5] 0.152

STRBP (UniProt Q96SI9)
inactive: [1] 0.2 | [2] -0.053 | [3] 0.154 | [4] 0.152 | [5] 0.12

STUB1 (UniProt Q9UNE7)
inactive: [1] 0.001 | [2] -0.032 | [3] 0.019 | [4] 0.146 | [5] -0.016

STK39 (UniProt Q9UEW8)
inactive: [1] -0.105 | [2] -0.015 | [3] 0.034 | [4] -0.026 | [5] -0.029

STXBP1 (UniProt P61764)
inactive: [1] -0.106 | [2] -0.027 | [3] 0.339 | [4] -0.069 | [5] -0.128

SUGT1 (UniProt Q9Y2Z0)
inactive: [1] -0.004 | [2] 0.022 | [3] 0.015 | [4] -0.01 | [5] 0.008

STX6 (UniProt O43752)
inactive: [1] 0.004 | [2] 0.016 | [3] 0.057 | [4] 0.009 | [5] 0.033

TBC1D10B (UniProt Q4KMP7)
inactive: [1] -0.021 | [2] 0.062 | [3] 0.014 | [4] -0.026 | [5] 0.006

SUDS3 (UniProt Q9H7L9)
inactive: [1] -0.21 | [2] 0.125 | [3] -0.062 | [4] 0.12 | [5] -0.07

Looked up one by one from above (2):
TARBP2 (UniProt Q15633)
inactive: [1] -0.011 | [2] -0.088 | [3] -0.053 | [4] 0.153 | [5] 0.018

TARS2 (UniProt Q9BW92)
inactive: [1] -0.018 | [2] 0.025 | [3] 0.101 | [4] -0.019 | [5] -0.023

Further results follow:

SYNCRIP isoform 3 (UniProt O60506)
inactive: [1] 0.019 | [2] -0.044 | [3] -0.032 | [4] 0.147 | [5] 0.08

SUPV3L1 (UniProt Q8IYB8)
inactive: [1] 0.009 | [2] -0.017 | [3] 0.012 | [4] -0.009 | [5] 0.074

TAOK3 (UniProt Q9H2K8)
inactive: [1] 0 | [2] 0.057 | [3] 0.002 | [4] -0.003 | [5] -0.024

STRIP2 (UniProt Q9ULQ0)
inactive: [1] 0.046 | [2] 0.119 | [3] 0.038 | [4] 0.053 | [5] 0.088

STT3A (UniProt P46977)
inactive: [1] 0.024 | [2] -0.012 | [3] -0.025 | [4] -0.022 | [5] 0.012

TAF15 (UniProt Q92804)
inactive: [1] 0.094 | [2] -0.088 | [3] -0.077 | [4] 0.081 | [5] 0.024

TAF9 (UniProt Q16594)
inactive: [1] 0.046 | [2] -0.043 | [3] -0.114 | [4] 0.049 | [5] 0.019

SUGP1 (UniProt Q8IWZ8)
inactive: [1] 0 | [2] -0.001 | [3] 0.066 | [4] -0.046 | [5] 0.019

SYNE1 (UniProt Q8NF91)
inactive: [1] -0.009 | [2] 0.24 | [3] 0.223 | [4] -0.018 | [5] -0.052

STX8 (UniProt Q9UNK0)
inactive: [1] 0.015 | [2] -0.062 | [3] -0.034 | [4] 0.019 | [5] 0.138

TANK (UniProt Q92844)
inactive: [1] -0.001 | [2] -0.093 | [3] -0.019 | [4] 0.02 | [5] 0.026

STMN1 (UniProt P16949)
inactive: [1] -0.048 | [2] 0.013 | [3] -0.005 | [4] 0.022 | [5] 0.003

SUPT16H (UniProt Q9Y5B9)
inactive: [1] -0.238 | [2] 0.023 | [3] 0.279 | [4] -0.106 | [5] -0.006

STX3 (UniProt Q13277)
inactive: [1] -0.011 | [2] 0.058 | [3] -0.002 | [4] 0.011 | [5] 0.078

STX4 (UniProt Q12846)
inactive: [1] -0.042 | [2] 0.017 | [3] 0.07 | [4] -0.003 | [5] -0.008

SUMO3 isoform 2 (UniProt P55854)
inactive: [1] 0.042 | [2] -0.057 | [3] -0.114 | [4] 0.033 | [5] 0.116

TAB1 (UniProt Q15750)
inactive: [1] -0.089 | [2] 0.057 | [3] 0.121 | [4] 0.061 | [5] -0.04

TBC1D10A (UniProt Q9BXI6)
inactive: [1] 0.079 | [3] 0.1 | [4] 0.05

STXBP4 (UniProt Q6ZWJ1)
inactive: [3] 0.114

SYNRG (UniProt Q9UMZ2)
inactive: [1] -0.009 | [2] 0.08 | [3] 0.053 | [4] 0.011 | [5] 0.009
